Measured data: PubChem BioAssay AID1259425 (University of Nebraska Medical Center, 2018)
Here is an unselected part of about 14,000 reagents. Not all columns of the deposit are shown. The record does not give: the time to read-out.

Assay: 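Seek colon cancer weak points whose silencing resembles KSR1 loss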 (primary screen)
Cell system: HCT116 human colon cancer cells
Reagents: siRNA pool against human genes, 50 nM siRNA
Measured: 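After 50 nM siRNA pool, branched-DNA assay measures six marker transcripts per well, minus blank, normalised to the geometric mean of two housekeeping transcripts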
Scale: BNIP3L mRNA: higher = more BNIP3L transcript after knockdown; NDRG1 mRNA: higher = more NDRG1 transcript after knockdown; BNIP3 mRNA: higher = more BNIP3 transcript after knockdown; ALDOC mRNA: higher = more ALDOC transcript after knockdown

| gene | PubChem SID | BNIP3L mRNA, set 1 | NDRG1 mRNA, set 1 | BNIP3 mRNA, set 1 | ALDOC mRNA, set 1 |
| --- | --- | --- | --- | --- | --- |
| SLC3A2 | SID363993574 | 0.0812 | 0.42 | 0.308 | 0.0223 |
| CELF2 | SID363997352 | 0.15 | 0.244 | 0.322 | 0.0262 |
| NACC1 | SID364004408 | 0.175 | 0.253 | 0.308 | 0.0157 |
| CORO7 | SID364002854 | 0.236 | 0.409 | 0.51 | 0.0567 |
| CBLIF | SID363996073 | 0.0644 | 0.138 | 0.202 | 0.0241 |
| CYP17A1 | SID363991439 | 0.0461 | 0.0967 | 0.299 | 0.0289 |
| RHEB | SID363996509 | 0.0373 | 0.645 | 0.284 | 0.0317 |
| NAAA | SID363998851 | 0.107 | 0.114 | 0.266 | 0.0243 |
| STARD7 | SID364001510 | 0.239 | 0.183 | 0.357 | 0.0345 |
| HGH1 | SID364000119 | 0.154 | 0.306 | 0.342 | 0.00421 |
| DOK3 | SID364003126 | 0.129 | 0.198 | 0.475 | 0.0791 |
| ALCAM | SID363992852 | 0.0373 | 0.216 | 0.276 | 0.0289 |
| LRIF1 | SID364001016 | 0.139 | 0.173 | 0.372 | 0.0296 |
| GTPBP1 | SID363995280 | 0.0393 | 0.0647 | 0.194 | 0.0146 |
| SDAD1 | SID364000793 | 0.134 | 0.52 | 0.374 | 0.0206 |
| NPTXR | SID363998726 | 0.104 | 0.117 | 0.214 | 0.0177 |
| RAN | SID363997146 | 0.0629 | 0.185 | 0.207 | 0.0337 |
| UTS2 | SID363997555 | 0.0363 | 0.236 | 0.131 | 0.0162 |
| BBOF1 | SID364003225 | 0.0958 | 0.62 | 0.339 | 0.0289 |
| RPL13A | SID363998306 | 0.0907 | 0.24 | 0.258 | 0.0221 |
| APOH | SID363991381 | 0.123 | 0.166 | 0.23 | 0.0169 |
| TOMM40 | SID363996955 | 0.178 | 0.309 | 0.427 | 0.0378 |
| KRT73 | SID364004867 | 0.115 | 0.119 | 0.239 | 0.0213 |
| CNKSR2 | SID363999202 | 0.0674 | 0.139 | 0.253 | 0.00632 |
| SSU72 | SID363998644 | 0.0715 | 0.122 | 0.284 | 0.0127 |
| ACADL | SID363992835 | 0.106 | 0.534 | 0.518 | 0.0125 |
| RRP9 | SID363995663 | 0.102 | 0.18 | 0.235 | 0.017 |
| RRM2B | SID363999664 | 0.0648 | 0.0825 | 0.271 | 0.0218 |
| LRCH2 | SID364001878 | 0.0897 | 0.146 | 0.31 | 0.019 |
| FAM216A | SID363998417 | 0.104 | 0.14 | 0.318 | 0.0384 |
| CCL28 | SID364001452 | 0.109 | 0.126 | 0.289 | 0.0386 |
| TRPV2 | SID363999882 | 0.108 | 0.201 | 0.328 | 0.0314 |
| AP1AR | SID364001132 | 0.159 | 0.172 | 0.275 | 0.0141 |
| SLC35E1 | SID364003132 | 0.0933 | 0.244 | 0.362 | 0.115 |
| DCX | SID363991878 | 0.25 | 0.677 | 0.284 | 0.0298 |
| TACR1 | SID363992355 | 0.0925 | 0.0683 | 0.273 | 0.038 |
| EXOSC4 | SID364001347 | 0.117 | 0.123 | 0.426 | 0.0405 |
| RYR2 | SID363992332 | 0.0774 | 0.233 | 0.307 | 0.0368 |
| RNF2 | SID363997908 | 0.0793 | 0.23 | 0.285 | 0.015 |
| BCR | SID363995316 | 0.0766 | 0.197 | 0.314 | 0.00774 |
| SBF1 | SID363994123 | 0.0998 | 0.274 | 0.298 | 0.033 |
| SLCO4A1 | SID364000054 | 0.04 | 0.119 | 0.27 | 0.00532 |
| ADIPOR1 | SID363999784 | 0.161 | 0.106 | 0.175 | 0.0313 |
| FAN1 | SID364005527 | 0.22 | 0.286 | 0.361 | 0.0264 |
| NLRP3 | SID363995844 | 0.108 | 0.097 | 0.343 | 0.0154 |
| ITLN1 | SID364000400 | 0.174 | 0.065 | 0.565 | 0.163 |
| FZD7 | SID363994603 | 0.51 | 0.624 | 1.03 | 0.116 |
| UBE2H | SID363994460 | 0.0439 | 0.227 | 0.219 | 0.0122 |
| PRKX | SID363995982 | 0.0757 | 0.0776 | 0.351 | 0.00726 |
| CFH | SID363991522 | 0.14 | 0.5 | 0.407 | 0.0313 |

Reprinted from above, 3 entries:
| gene | PubChem SID | BNIP3L mRNA, set 1 | NDRG1 mRNA, set 1 | BNIP3 mRNA, set 1 | ALDOC mRNA, set 1 |
| --- | --- | --- | --- | --- | --- |
| ALCAM | SID363992852 | 0.0373 | 0.216 | 0.276 | 0.0289 |
| LRIF1 | SID364001016 | 0.139 | 0.173 | 0.372 | 0.0296 |
| GTPBP1 | SID363995280 | 0.0393 | 0.0647 | 0.194 | 0.0146 |
